According to patent EP2077109A1, “AMIDE COMPOUND, SALT THEREOF, AND BIOFILM REMOVER USING THEM” (The University of Tokyo, priority 2006, dated 2008):
Entries after “also recorded” stand apart in the source; their conditions may differ. For at least one compound, name, drawing or mass did not settle the structure. Some compounds share one wording; it may come from a single statement.

Test system: Pseudomonas aeruginosa (gfp expression PAO1-strain)
Test: Evaluation test for an effect for removing biofilms formed by Pseudomonas aeruginosa (flow cell system, fluorescence confocal microscope)
Type: cell-based
Conditions: test liquid 100µM compound, flow rate 200µL per minute, observed after 3, 4, 5, 6, 7 and 10 days, compared with DMSO control test liquid

Compound | biofilm removal effect (state of biofilm formed on the inner wall of the glass cell)
CCCCCCCCCC(=O)CC(=O)NN1CCCC1 [Compound 1a-1, N-(pyrrolidin-1-yl)-3-oxododecanoyl amide] | effective for removing deposited biofilms
CCCCCCCCCC(=O)CC(=O)NN1CCCCC1 [Compound 1a-2, N-(piperidine-1-yl)-3-oxododecanoyl amide] | gradual disappearance of the deposited biofilm with time; also recorded: effective for removing deposited biofilms
CCCCCCCCCC(=O)CC(=O)Nc1ccc(O)cc1C [Compound 1b-1, N-(4-hydroxy-2-methylphenyl)-3-oxododecanoyl amide] | gradual disappearance of the deposited biofilm with time; also recorded: effective for removing deposited biofilms
CCCC(=O)CC(=O)Nc1ncccc1O [Compound 1c-1, N-(3-hydroxypyridine-2-yl)-3-oxohexanoylamide] | gradual disappearance of the deposited biofilm with time; also recorded: effective for removing deposited biofilms
